Publication PMC9604039

Key:
[1] = biological target: T1, OsCIPK17 (BiFC fusion) (rice (Oryza sativa)) (UniProt Q75L42); experiment: split reporter; BiFC with pSPYCE/pSPYNE fusions expressed in Nicotiana benthamiana leaves for three days; YFP fluorescence by confocal microscopy
T1 sequence: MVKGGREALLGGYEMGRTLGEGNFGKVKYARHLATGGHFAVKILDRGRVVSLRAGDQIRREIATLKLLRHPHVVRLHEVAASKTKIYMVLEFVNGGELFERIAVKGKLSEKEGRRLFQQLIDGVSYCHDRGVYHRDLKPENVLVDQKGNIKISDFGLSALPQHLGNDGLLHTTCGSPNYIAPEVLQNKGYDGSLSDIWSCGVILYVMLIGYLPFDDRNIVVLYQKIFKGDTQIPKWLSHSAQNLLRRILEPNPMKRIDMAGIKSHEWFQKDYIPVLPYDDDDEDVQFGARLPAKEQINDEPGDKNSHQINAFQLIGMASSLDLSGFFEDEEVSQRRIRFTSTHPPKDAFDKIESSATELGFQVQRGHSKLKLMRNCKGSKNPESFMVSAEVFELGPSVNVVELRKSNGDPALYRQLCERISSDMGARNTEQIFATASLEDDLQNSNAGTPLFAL

[2] = biological target: T2, OsCIPK17 (rice (Oryza sativa)) (UniProt Q75L42); experiment: two-hybrid; Y2H of OsCIPK17 with predicted target proteins; for OsJAMYB AbA and 3-AT were added to QDO medium to inhibit self-activation; vectors of the partners not stated
T2 sequence: T1 sequence

[3] = biological target: OsCIPK27 (rice (Oryza sativa)); experiment: two-hybrid; Matchmaker Gold system, Y2HGold strain; OsCBL in pGADT7, OsCIPK in pGBKT7; growth on DDO, then TDO and QDO media

Molecule: OsPP2C77 (BiFC fusion) (rice (Oryza sativa))
binding [1]: binds

Molecule: OsDREB1H (rice (Oryza sativa))
binding [2]: binds

Molecule: OsNAC77 (rice (Oryza sativa))
binding [2]: binds

The next lines start with the values.

binding [2]: binds
Molecule: OsPP2C77 (rice (Oryza sativa))

binding [1]: binds
Molecule: OsNAC77 (BiFC fusion) (rice (Oryza sativa))

binding [1]: binds
Molecule: OsDREB1H (BiFC fusion) (rice (Oryza sativa))

binding [3]: binds
B1: OsCBL8 (protein, UniProt Q3HRN9 1-213)
chain: MGCVSSKQFKRAAQHEDPAILAKETTFSVSEVEALFELFKKISHSIFRDGLIHKEEFQLALFRNSNKKNLFANRIFDLFDLKRNGVIDFGEFVRSLSIFHPETPLGDKIAFAFRLYDLRGTGCIEREELHEMVLALLNESDLFLSEEAVEQIVDQTFKQADLNDDGKIDPDEWKTFASKNPALLKNMTLPYLKDITMVFPSFILNSEVCEEEL

These are yes or no findings as the source states them, for the method shown. A result given as binding can be weak or reduced; the word gives no strength. For some of these results: In cells and extracts the contact can be indirect. For some of these results: Tags and fused reporters may be left off the sequences shown. Each block holds one molecule with its values, some of them ahead of it.
